Data as given in PMC8486872, “A rational blueprint for the design of chemically-controlled protein switches” (Nature Communications, 2021).
A number of entries come with more than one value. The list is limited to them. There may be further records. For part of these data: Values given together read as repeated measurements (runs, samples, wells or individuals). For part of these data: The values listed for one entry appear to be repeats (runs, samples, wells or individuals); one of them may be the mean.

Experiments:
[1] = tested on: anti-HER2 CAR expression in HEK293T cells; experiment: Flow cytometry of surface expression of anti-HER2 CAR induced by AIR-1-TF; details: 1 µM Drug-1, 24 h
[2] = tested on: SEAP and Luciferase expression in HEK293T cells; experiment: SIMO designer cells (AIR-1/2-GEMS + CDH-1/2-TF); details: Fig S13i, CDH-1-TF control Luciferase expression only

With CN(C)CC#Cc1ccc(OCCCc2sc(N3CCc4cccc(C(=O)Nc5nc6ccccc6s5)c4C3)nc2C(=O)O)c(F)c1 the “anti-HER2 CAR expression, negative control (Neg, no TF switch)” value [1] was 4.89 and 4.097, the Luciferase ([2]; Drug-1 0.1 nM) was 2.233 RLU, 4.772 RLU, 6.414 RLU and the Luciferase ([2]; Drug-1 1 nM) was 1.251 RLU, 5.155 RLU, 4.586 RLU.
